PubChem BioAssay AID1347423 (Functional Genomics Laboratory (NCATS/FGL), 2020)
Out of some 52,000 sequences screened, about 210 (0.4%) were called active.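 How the source made its calls: active means gene whose silencing raises cell survival under the drug, median off-target-corrected z-score across its silencing RNAs 2 or more; inactive means the rest.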 The list shows a part of the results.

Assay: Resistance to Poly (ADP-Ribose) Polymerase inhibitor: Gene Identification via Genome-wide siRNA Screen
Settings: mouse BRCA2 R2336H ES cells, olaparib, CellTiter-Glo viability; stronger effect = higher value
Outline: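 Mouse BRCA2 R2336H ES cells were reverse-transfected with siRNA (20 nM final), treated at 48 h with 500 nM olaparib, and read by CellTiter-Glo after 72 h. Scores: MAD-based z per siRNA, median per gene, seed off-target correction.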

Q: Which z-score does the source give for GCCCGGAAUAUAUAGCCCUTT against Hdac10 here?
A: inactive: -0.274

Q: Which z-score does the source give for GGGAAGUUGUCCUUGAAGATT against Cd36 here?
A: inactive: -1.63

Q: For GCAAGAUCAAACCUUAGUGTT against Pbsn, which z-score is on record?
A: inactive: -0.897

Q: With CCUUAUACCAUAGAGAACATT against Bfar as the sequence, how does the z-score read?
A: inactive: -1.03

Q: Which z-score does the source give for GGACAAAGUUGUUCCUUCUTT against Zfp13 here?
A: inactive: -0.292

Q: For CGUUGCUGUUGUGGUCUUGTT against Olfr1232, which z-score is on record?
A: inactive: -1.78

Q: For GGCCCUACCCAUUCAUUCUTT against Asb6, which z-score is on record?
A: inactive: -0.251

Q: For GGAUAGGAAAAAAUCACCATT against Prpf4b, which z-score is on record?
A: inactive: -2.75

Q: Which z-score does the source give for GGACAGAUACGUUAUCAAGTT against Il3 here?
A: inactive: 0.441

Q: For GGGAACCUAUUGAUAAUCUTT against Rnpc2, which z-score is on record?
A: inactive: 0.199

Q: Which z-score does the source give for GGUGUUCGGUGUCCUGGAATT against Pctp here?
A: inactive: -1.75

Q: With GGAGUUGCUUGAUUUUAAATT against Pdk1 as the sequence, how does the z-score read?
A: inactive: -0.0168

Q: For “GCUCCUUAGACUCCACUCATT against 4930535E21Rik”, which z-score is on record?
A: inactive: 0.186

Q: For CCUGAGUAUUAAAGUUUAGTT against Whsc2, which z-score is on record?
A: inactive: 0.397

Q: For CGUGGUGAGAUCAUAAAACTT against Bbox1, which z-score is on record?
A: inactive: 0.341

Q: Which z-score does the source give for GGAUAUCCUACAGUUCUGGTT against Krt2-5 here?
A: inactive: -0.652

Q: For GGAAGUUUGUGUCUGAUGUTT against P2y5, which z-score is on record?
A: inactive: -0.121

Q: Which z-score does the source give for CCCAGUUUAGAUUGGUCAATT against Igfbp5 here?
A: inactive: 1.62

Q: Which z-score does the source give for “GGAGAUGCCAAAGUUAUGATT against 2610528E23Rik” here?
A: inactive: 0.657

Q: For CCUUUUGAAACGUACAGCGTT against Admr, which z-score is on record?
A: inactive: 0.358

Q: Which z-score does the source give for GGCCUGAACUUUUUAUUGATT against Olfr533 here?
A: inactive: -0.108

Q: With GGGAUAAUAAUGUUGAUUGTT against Mrc1 as the sequence, how does the z-score read?
A: inactive: 2.08

Q: For “GGGAAGAAAUAUGUUAGAUTT against 2610319K07Rik”, which z-score is on record?
A: inactive: -0.818

Q: Which z-score does the source give for CGUGUAAGUUUUGAUUCUATT against Calr here?
A: inactive: 0.0672

Q: Which z-score does the source give for GCCUACAGCUCUUUACACATT against Gpr89 here?
A: inactive: 0.356

Q: Which z-score does the source give for GGUGACAAAGGUGUUAGAATT against Itpkc here?
A: inactive: 0.491

Q: For “GGUUCUUGUGUUCAGAUGGTT against 6030422M02Rik”, which z-score is on record?
A: inactive: -0.109

Q: With GCUAAAAGGUAAGUACUUCTT against AB041803 as the sequence, how does the z-score read?
A: inactive: 0.00857

Q: For “GCUAAUUGCUCCGUACUCCTT against A930010I02”, which z-score is on record?
A: inactive: 1.93
